Article PMC6917645
Results are given in words; binding and its absence hold for the method and conditions named. Binding seen in cells or lysates may run through a third protein. Some results given as binding are weak or reduced against the parent protein; the word gives no strength. Where a sequence is shown, tags or fusion partners need not be part of it.

By UniProt entry, the sequences of proteins in these tests, tags left out.
UniProt P51617: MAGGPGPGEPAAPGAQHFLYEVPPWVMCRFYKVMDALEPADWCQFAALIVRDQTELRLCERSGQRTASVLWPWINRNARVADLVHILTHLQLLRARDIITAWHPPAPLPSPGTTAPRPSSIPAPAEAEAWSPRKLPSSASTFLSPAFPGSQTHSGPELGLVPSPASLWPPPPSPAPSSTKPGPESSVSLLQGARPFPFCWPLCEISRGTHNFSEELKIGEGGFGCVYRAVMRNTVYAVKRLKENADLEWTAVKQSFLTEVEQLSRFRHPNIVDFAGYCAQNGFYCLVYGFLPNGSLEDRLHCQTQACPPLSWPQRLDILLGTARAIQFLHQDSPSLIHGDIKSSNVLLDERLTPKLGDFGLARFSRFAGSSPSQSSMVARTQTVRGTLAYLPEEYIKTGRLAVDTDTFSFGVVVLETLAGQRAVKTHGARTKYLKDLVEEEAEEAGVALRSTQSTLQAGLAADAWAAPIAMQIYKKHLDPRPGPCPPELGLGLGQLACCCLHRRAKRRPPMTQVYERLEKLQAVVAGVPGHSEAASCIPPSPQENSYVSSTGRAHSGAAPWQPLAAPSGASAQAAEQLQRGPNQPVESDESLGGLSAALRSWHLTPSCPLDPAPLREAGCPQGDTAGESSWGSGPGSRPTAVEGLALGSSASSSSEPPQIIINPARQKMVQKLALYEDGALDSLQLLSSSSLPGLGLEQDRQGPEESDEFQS

Biological target: T1, Viperin-Flag (UniProt Q8WXG1)
T1 sequence: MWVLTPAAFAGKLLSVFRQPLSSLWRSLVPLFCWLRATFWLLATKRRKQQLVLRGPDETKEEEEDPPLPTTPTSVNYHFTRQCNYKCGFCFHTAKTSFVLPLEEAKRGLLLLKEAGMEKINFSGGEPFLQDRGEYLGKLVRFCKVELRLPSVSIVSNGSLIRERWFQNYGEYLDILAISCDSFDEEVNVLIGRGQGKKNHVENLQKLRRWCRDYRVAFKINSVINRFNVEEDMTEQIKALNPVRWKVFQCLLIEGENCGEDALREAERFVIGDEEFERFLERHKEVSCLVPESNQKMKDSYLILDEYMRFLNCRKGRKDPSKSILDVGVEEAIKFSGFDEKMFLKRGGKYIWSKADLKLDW
Assay: co-IP; HEK293T co-transfected for 24 h, RIPA lysate; IP with mouse anti-Flag or anti-Myc mAb (or control mouse IgG) and protein A/G PLUS-Agarose at 4°C overnight; washes with lysis buffer with 500 mM NaCl; immunoblot; some samples co-expressed gD-EYFP, EYFP control or Viperin-Flag

Question: How did the binding turn out when IRAK1-HA (from UniProt P51617 1-712) was run?
Answer: binds
